Laboratory results reported in PubChem BioAssay AID504467 (National Center for Advancing Translational Sciences (NCATS), 2011).
Hit rate of the full screen: of about 330,000 compounds, about 7,700 (2.3%) were called active. Inconclusive results, whose numbers are uncertain, are shown with a selection of clear calls. Calls come from the whole dose curve; as a rule, active = well fitted inhibition curve with a large enough effect; inconclusive = small, poorly fitted or top-dose-only effect, or effect the other way; inactive = flat fitted curve, though single readings scatter. Potencies beside an inconclusive call are fits to weak or partial responses and may not hold up.

assay: qHTS screen for small molecules that inhibit ELG1-dependent DNA repair in human embryonic kidney (HEK293T) cells expressing luciferase-tagged ELG1; conditions: HEK293T ELG1-luciferase reporter, luminescence, 16 h, DNA damage induced by 5-fluorouridine; activity change, negative = inhibition: at 46.1 µM (top of the series); note: nearly all actives have a fitted effect of over 55% in size
How it was run: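 Luminescence from the luciferase reporter, measured 30 min after ONE-Glo reagent at room temperature, was the read-out. Beforehand, 2,000 cells per well were exposed for 16 hr at 37 °C to 5-fluorouridine together with compound or vehicle.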
% is set by controls: 0 for no effect and ±100 for the full control effect; potency is the fitted concentration of half-maximal effect.

Row | SMILES | Potency | activity change, negative = inhibition
1 | COCCn1c(SCC(=O)N(C(C)C)C(C)C)nnc1-c1cc2ccccc2cc1O | inconclusive: 1.84 µM [inhibitor, partial curve, poor fit] | –
2 | CC(C)OC(=O)CCC(=O)Nc1nc2ccccc2s1 | inconclusive: 25.9 µM [activator, single point] | –
3 | O=C(Nc1ccccc1-c1ccccc1)c1cnccn1 | inconclusive: 8.2 µM [activator, partial curve] | –
4 | CC(Nc1cccc([N+](=O)[O-])c1)C(=O)Nc1ccc(S(=O)(=O)N2CCCC2)cc1 (stereo not drawn) | inconclusive: 29.1 µM [inhibitor, single point] | –
5 | O=C(NC(NC(=S)N1CCOCC1)C(Cl)(Cl)Cl)c1ccc(Cl)cc1 (stereo not drawn) | inconclusive: 3.66 µM [inhibitor, full curve] | –
6 | Cc1csc2ncc(C(=O)Nc3ccon3)c(=O)n12 | – | inactive: 21.9%
7 | COc1ccccc1-n1nnnc1SCC(=O)NCC1(N2CCOCC2)CCCCC1 | – | inactive: -8.58%
8 | O=C(N/N=C/c1ccc[nH]1)c1cccnc1 | – | inactive: 8.24%
9 | C=CCNC(=O)COc1ccc(S(=O)(=O)NC2CCCCC2)cc1 | – | inactive: -3.01%
10 | CCOC(=O)c1c(C)[nH]c(C)c1C(=O)CSc1nc2ccccc2c(=O)n1-c1ccc(CC)cc1 | inconclusive: 25.9 µM [inhibitor, partial curve] | –
11 | Clc1ccc(-n2ncc3c(NCc4ccco4)ncnc32)cc1 | – | inactive: -7.47%
12 | Cc1ccccc1N=C1NC(=O)CC(c2ccccc2)S1 (stereo not drawn) | – | inactive: 13.6%
13 | O=c1c(Cl)c(NCCO)cnn1-c1cccc(Cl)c1 | inconclusive: 11.6 µM [activator, partial curve] | –
14 | CC(NC(=O)CNC(=O)c1ccccc1Br)c1cccs1 (stereo not drawn) | – | inactive: 8.51%
15 | CC1(C)Cc2nc3sc4c(=O)n(Cc5ccccc5)cnc4c3cc2CS1 | inconclusive: 16.4 µM [inhibitor, single point] | –
16 | Cc1ccc(Cn2nnnc2CN2CCC(NC(=O)c3ccc(Br)cc3)CC2)cc1 | active: 20.6 µM | –
17 | COc1ccccc1N1CCN(C(=O)C(=O)N/N=C/c2ccccc2F)CC1 | inconclusive: 20.6 µM [activator, partial curve, poor fit] | –
18 | C/C(=N\NS(=O)(=O)c1c(C)cc(C)cc1C)c1ccncc1 | – | inactive: -11.1%
19 | O=C1c2cc(F)ccc2OC2(CCNCC2)C12CC(c1ccccc1)=NO2 (stereo not drawn) | – | inactive: 21.1%
20 | CCn1cc(/C=N/NC(=O)c2ccc3c(c2)OCO3)c(C)n1 | – | inactive: 5.7%
21 | COc1ccc(-c2nc3n(c2Br)CCC3)cc1 | inconclusive: 18.4 µM [activator, partial curve] | –
22 | COc1cc(NC(=O)COC(=O)/C=C/c2c(C)nn(-c3ccc(F)cc3)c2Cl)cc(OC)c1 | inconclusive: 23.1 µM [inhibitor, partial curve, poor fit] | –
23 | Nc1oc2ccccc2c(=O)c1-c1ccc2c(c1)OCO2 | inconclusive: 23.1 µM [activator, partial curve] | –
24 | C(/C=C/c1ccco1)=N/N1CCN(c2ccccc2)CC1 | inconclusive: 25.9 µM [activator, single point] | –
25 | O=C(NS(=O)(=O)c1ccc(NC(=O)C2CCCO2)cc1)c1ccccc1 (stereo not drawn) | – | inactive: 8.76%

Row | SMILES | Potency | activity change, negative = inhibition
26 | Nn1cnnc1SCC(=O)Nc1ccc(C2CCCCC2)cc1 | inconclusive: 16.4 µM [activator, partial curve] | –
27 | COC(=O)c1cn(NC(=O)Cn2nc([N+](=O)[O-])c(Br)c2C)c(=O)c2ccccc12 | – | inactive: 5.62%
28 | CCn1c(SCC(=O)Nc2sc3c(c2C#N)CCCC3)nnc1-c1ccco1 | inconclusive: 18.4 µM [inhibitor, single point] | –
29 | O=C(NCc1cccnc1)C1CC(c2ccccc2Cl)=NO1 (stereo not drawn) | – | inactive: -6.03%
30 | COc1ccc(CNC(=O)C[C@H]2C[C@H](C(=O)N3CCOCC3)[C@@]3(C)c4[nH]c5cc(CCC(=O)N(C)C)ccc5c4CCN3C2=O)cc1OC | – | inactive: 17.5%
31 | O=C(CCS(=O)(=O)c1cccc2nonc12)N1CCN(c2ccc(F)cc2)CC1 | – | inactive: 0.151%
32 | CC(=O)NC(Cc1c[nH]c2ccccc12)C(=O)NCCc1ccccn1 (stereo not drawn) | inconclusive: 29.1 µM [activator, partial curve, poor fit] | –
33 | Cc1cccc(NC(=O)c2cc([N+](=O)[O-])ccc2N2CCCCC2)n1 | inconclusive: 18.3 µM [inhibitor, partial curve, poor fit] | –
34 | CCOC(=O)/C=C(\C)Sc1cc(=O)oc2ccccc12 | – | inactive: -24.4%
35 | CSC(=NNC(=O)c1ccccc1O)SC | inconclusive: 20.6 µM [activator, single point] | –
36 | Cc1cccn2c(=O)c3cc(C#N)c(=NC(=O)c4ccncc4)n(CCCOC(C)C)c3nc12 | active: 11.6 µM | –
37 | COc1ccc(-c2ccc3oc(-c4ccsc4)c(-c4ccc(Br)nc4)c3c2)cc1 | inconclusive: 9.2 µM [activator, partial curve] | –
38 | COc1ccc(C(=O)OCC(=O)Nc2ccc(Cl)c(C(F)(F)F)c2)c(OC)c1OC | inconclusive: 29.1 µM [inhibitor, single point] | –
39 | CCOc1ccc(CCNC(=O)CN2C(=O)CCSc3ccccc32)cc1 | – | inactive: 10.9%
40 | COc1ccc(N2CCN(S(=O)(=O)c3ccc(OC)c(C(=O)N4CCOCC4)c3)CC2)cc1 | – | inactive: -10.2%
41 | COCCC(=O)N1CCC(Oc2ccc(C(=O)N3CCCCC3COC)cc2)CC1 (stereo not drawn) | – | inactive: 6.23%
42 | O=C(O)c1ccc(S(=O)(=O)N2CCC(c3nc(-c4ccccc4Cl)no3)CC2)cc1 | – | inactive: -2.81%
43 | CCC(=O)N1CCc2cc(S(=O)(=O)NCCC(=O)NC3CCCc4ccccc43)ccc21 (stereo not drawn) | inconclusive: 29.1 µM [inhibitor, single point] | –
44 | COCCNC(=O)C(C)Oc1ccccc1 (stereo not drawn) | inconclusive: 2.91 µM [inhibitor, partial curve, poor fit] | –
45 | Cc1cc(NC(=O)CSc2ncc(C(F)(F)F)cc2Cl)no1 | inconclusive: 29.1 µM [activator, partial curve, poor fit] | –
46 | COc1ccc(Cc2nnc(N/N=C/c3ccc(O)cc3)[nH]c2=O)cc1OC | active: 5.8 µM | –
47 | CCn1c(C(=O)O)c(CC(=O)N(C)c2ccc(OC)cc2OC)c2ccccc21 | – | inactive: 0.308%
48 | CCN1C(=O)c2cccc3c(NC(=O)c4ccccc4)ccc1c23 | inconclusive: 14.6 µM [activator, partial curve] | –
49 | CCCOc1ccc(-c2c(C(=O)N/N=C/c3ccc(OCC)cc3)nnn2-c2nonc2N)cc1 | inconclusive: 13 µM [inhibitor, partial curve, poor fit] | –
50 | Cc1ccc(NC(=O)CN2C(=O)N/C(=C\c3cccnc3)C2=O)cc1 | inconclusive: 16.4 µM [activator, single point] | –

Row | SMILES | Potency | activity change, negative = inhibition
51 | COc1ccc(CNC(=O)c2cc3cccc(OC)c3oc2=N)cc1 | – | inactive: -0.654%
52 | CSCC(=O)N1CCc2ccc(NC(=O)c3ccccc3Cl)cc2C1 | – | inactive: 27.9%
53 | CCOc1ccc(OCC)c(NC(=O)C2CCCN(S(=O)(=O)c3cccs3)C2)c1 (stereo not drawn) | inconclusive: 7.31 µM [inhibitor, partial curve, poor fit] | –
54 | O=C(Nc1ccc(S(=O)(=O)N2CCOCC2)cc1)c1ccc([N+](=O)[O-])cc1Cl | inconclusive: 29.1 µM [inhibitor, single point] | –
55 | CCc1ccc(/C=C2/SC(=S)N(CC(=O)Nc3nc4ccccc4s3)C2=O)cc1 | inconclusive: 29.1 µM [activator, single point] | –
56 | CCCOc1ccc(C(=O)NNC(=O)CCNC(=O)c2ccccc2Cl)cc1OC | inconclusive: 29.1 µM [activator, partial curve, poor fit] | –
57 | CCOc1ccc(S(=O)(=O)Nc2cccnc2)cc1 | inconclusive: 8.91 µM [inhibitor, partial curve] | –
58 | Cc1ccc2nc(-c3ccccc3)cc(C(=O)NNC(=O)c3csc(N4CCOCC4)n3)c2c1 | active: 6.51 µM | –
59 | Cc1ccc(-n2[nH]c(C)c(C=Nc3ccc(Br)cn3)c2=O)cc1 | – | inactive: -3.4%
60 | CCOc1ccc2nnnn2n1 | – | inactive: -24%
61 | NC(=S)NC1CC2CC1C1C=CCC21 (stereo not drawn) | – | inactive: 0%
62 | CN1CCN(NC(=O)c2cccc(C(F)(F)F)c2)CC1 | – | inactive: 14.2%
63 | COc1cc(CN(CCc2c(C)[nH]c3ccc(C)cc23)C(=S)NC(C)(C)C)cc(OC)c1OC | – | inactive: -12.2%
64 | COc1ccc(-c2ccc(SC)nn2)cc1 | inconclusive: 1.3 µM [activator, partial curve] | –
65 | CCOC(=O)c1c(NC(=O)CN2CCCCC2)sc2c1CCCC2O (stereo not drawn) | inconclusive: 9.2 µM [inhibitor, partial curve] | –
66 | OCCCCNCc1ccc(OCc2ccccc2)cc1 | inconclusive: 18.4 µM [activator, partial curve] | –
67 | COc1ccc2sc(-c3ccc(S(C)(=O)=O)cc3)c(C#Cc3cncn3C)c2c1 | inconclusive: 4.61 µM [inhibitor, partial curve] | –
68 | CC(C)OC(=O)c1ccc(COC(=O)CNC(=O)c2ccco2)cc1 | inconclusive: 23.1 µM [activator, partial curve, poor fit] | –
69 | CCCCCCC#Cc1ccc2c(c1)COc1c3ccccc3nn1-2 | inconclusive: 13 µM [activator, partial curve] | –
70 | O=C(CCN1N=C(c2ccccc2)CCC1=O)NCC1COc2ccccc2O1 (stereo not drawn) | inconclusive: 23.1 µM [inhibitor, single point] | –
71 | Cc1ccc(-c2ccc(CCC(=O)O)n2NC(N)=S)cc1 | inconclusive: 10.3 µM [activator, partial curve, poor fit] | –
72 | Cc1cc(/C=C(\C#N)C(=O)NCCc2c[nH]c3ccccc23)c(C)n1C | inconclusive: 29.1 µM [inhibitor, single point] | –
73 | Cc1cc2c(c(C)c1CCO[C@@H]1O[C@H](CO)[C@@H](O)[C@H](O)[C@H]1O)C(=O)[C@@H](C)[C@@H]2O | – | inactive: 2.3%

Of the compounds above, three have a CF3 group:
Row | SMILES | Potency | activity change, negative = inhibition
38 | COc1ccc(C(=O)OCC(=O)Nc2ccc(Cl)c(C(F)(F)F)c2)c(OC)c1OC | inconclusive: 29.1 µM [inhibitor, single point] | –
45 | Cc1cc(NC(=O)CSc2ncc(C(F)(F)F)cc2Cl)no1 | inconclusive: 29.1 µM [activator, partial curve, poor fit] | –
62 | CN1CCN(NC(=O)c2cccc(C(F)(F)F)c2)CC1 | – | inactive: 14.2%
